# Assay results reported in PubChem BioAssay AID493014 (National Center for Advancing Translational Sciences (NCATS), 2011).
# The list shows a part of the results. Shown are side measurements of this screen, not its main read-out; they come without a call. Compounds called inactive in the main read-out are mostly missing here. Potencies come from curve fits of mixed quality, noted in brackets.
# Test: qHTS Assay to Find Inhibitors of Chronic Active B-Cell Receptor Signaling
# Conditions: ABC-DLBCL IkBa-CBG/CBR reporter, luminescence ratio (green luciferase fused to IkBa over red control in TMD8 lymphoma cells), 4 h
# Method in brief: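 Cell line TMD8 (human ABC DLBCL), stably expressing tet-inducible CBG68-IkBa fusion and CBR; IMDM/0.5% FBS; cpd up to 46 uM; dox induction, 4 h, 37C/5% CO2; dual luminescence; green/red ratio; MG132 control.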
# [1] = measured here: CBR red luminescence, cell number
# [2] = measured here: IkBa-CBG green luminescence
SMILES,AC50 [1],AC50 [2]
COc1ccc2c(c1)c(=O)oc1cc(OCC(=O)NCC3CCC(C(=O)O)CC3)ccc12 (stereo unspecified),"2.51 µM [falling, partial curve, poor fit]",–
O=C(Cn1nnc(-c2ccc(F)cc2)n1)Nc1cccc(S(=O)(=O)N2CCCC2)c1,"20.6 µM [falling, single point]",–
CN(C)CCOc1ccc(C(C)(C)c2ccccc2)cc1,"3.16 µM [rising, full curve, poor fit]",–
CSc1ccc(CN(C)C(=O)c2cc(=O)[nH]c3ccccc23)cc1,"35.5 µM [rising, single point]",–
CCN(c1ccc(OC)cc1)S(=O)(=O)N1CCCC(C(=O)NCc2ccccc2Br)C1 (stereo unspecified),"22.4 µM [falling, single point]",–
O=C(NC1CCCCC1)c1cc(-c2ccc(O)cc2)on1,"1.58 µM [falling, full curve]",–
CC1Cc2ccccc2N1C(=O)CCS(=O)(=O)c1cccs1 (stereo unspecified),"7.94 µM [rising, partial curve, poor fit]",–
COc1ccc(COc2cc(-c3cccc(OC)c3)nc3ccc(NC(=O)c4ccc(OC)cc4)cc23)cc1,"29.1 µM [rising, single point]","18.4 µM [falling, single point]"
COc1ccc(NC(=O)c2cccc(N3C(=O)C4C5C=CC(C6CC56)C4C3=O)c2)c(OC)c1 (stereo unspecified),"35.5 µM [falling, single point]",–
CC1CC(C)CN(CCOCCSc2ccc(Cl)cc2)C1 (stereo unspecified),"10 µM [falling, partial curve, poor fit]",–
Cc1cc(F)ccc1NC(=O)C(C)n1c2ccccc2c2nc(=O)cc(C)n21 (stereo unspecified),"5.62 µM [falling, partial curve, poor fit]",–
CC(=O)N1C(=O)/C(=C2\SC(=S)N(NC(=O)c3ccc(O)cc3)C2=O)c2ccccc21,"22.4 µM [falling, single point]",–
CC(c1nc2ccccc2c(=O)[nH]1)N(C)CCOc1ccc(Cl)cc1 (stereo unspecified),"0.631 µM [rising, partial curve]",–
CC1=NN(C(N)=S)C(=O)C1N=Nc1cccc(C(=O)O)c1 (stereo unspecified),"0.355 µM [falling, full curve]",–
COc1ccc(CCNC(=O)C2CCCN2C(=O)NC2CCCCC2)cc1OC (stereo unspecified),"0.1 µM [rising, full curve, poor fit]",–
CCc1ccc(NC(=O)C(=O)NCCN2CCN(C(=O)c3ccco3)CC2)cc1,"18.4 µM [rising, single point]",–
O=C(Nc1ccc(N2CCOCC2)cc1)c1nc2ccccc2s1,"7.08 µM [falling, full curve, poor fit]",–
CCN(CC)CCNC(=O)c1cc2c(-c3ccc(Cl)cc3)nn(C)c2s1,"23.1 µM [falling, single point]",–
CCCCN(C(=O)CSc1nc2ccccc2n1CC)C1CCS(=O)(=O)C1 (stereo unspecified),"5.8 µM [rising, single point]","23.1 µM [falling, partial curve, poor fit]"
COc1ccccc1NC(=O)OC(C)c1ccc(Cl)cc1 (stereo unspecified),"15.8 µM [rising, partial curve, poor fit]",–
CCOC(=O)c1sc(NC(=O)C2CC2)nc1C,"5.17 µM [falling, full curve]",–

# Some of the entries so far, with tabs.
SMILES	AC50 [1]	AC50 [2]
CC1Cc2ccccc2N1C(=O)CCS(=O)(=O)c1cccs1 (stereo unspecified)	7.94 µM [rising, partial curve, poor fit]	–
COc1ccc(COc2cc(-c3cccc(OC)c3)nc3ccc(NC(=O)c4ccc(OC)cc4)cc23)cc1	29.1 µM [rising, single point]	18.4 µM [falling, single point]

# Further entries follow.

SMILES,AC50 [1],AC50 [2]
CN1CCN(Cc2nc(-c3cccs3)no2)CC1c1ccccc1 (stereo unspecified),"3.55 µM [falling, full curve, poor fit]",–
COc1ccc(-n2cc3c(-c4cccc(Br)c4)nnc(C)c3n2)cc1,"32.6 µM [falling, single point]",–
COc1ccc(CNc2nc(-c3ccccc3)nc3ccccc23)cc1OC,"35.5 µM [falling, single point]",–
O=S(=O)(Nc1ccc2c(c1)nc1n2CCN(Cc2ccccc2)C1)c1ccc(Cl)cc1,"2.82 µM [falling, partial curve, poor fit]",–
C/C(=N/NC(=O)CNC(=O)c1ccncc1)c1ccco1,"12.6 µM [falling, single point]",–
Cc1cccc(C)c1NC(=O)CSc1nnc(-c2ccccc2)n1Cc1ccc2c(c1)OCO2,"35.5 µM [falling, single point]",–
Oc1cccc(/C=N/N2CCN(c3ccccn3)CC2)c1,"15.8 µM [falling, single point]",–
CC(C)OC(=O)c1c2c(n3ccccc13)C(=O)c1ccccc1C2=O,"16.4 µM [falling, single point]",–
CCCCn1c(-c2csc(C(C)C)c2)n[nH]c1=S,"13 µM [rising, partial curve, poor fit]","23.1 µM [falling, partial curve, poor fit]"
CN(C)CCNC(=O)c1cc(Sc2ccc(F)cc2)nc2ccccc12,"14.1 µM [falling, single point]",–
COc1ccc(C2(C)NC(=O)N(CC(=O)c3cc(C)n(C4CC4)c3C)C2=O)cc1OC (stereo unspecified),"3.66 µM [rising, single point]",–
Cc1[nH]c2c(C(=O)N3CCCC(CCC(=O)NCc4ccccc4F)C3)cccc2c1C (stereo unspecified),"25.1 µM [falling, single point]",–
CC(C)c1ccc(NC(=S)NC2CCN(Cc3ccccc3)CC2)cc1,"4.11 µM [rising, single point]",–
Cc1cc(O)c(C(C[N+](=O)[O-])c2ccc(Cl)cc2)c(=O)o1 (stereo unspecified),"0.206 µM [falling, full curve, poor fit]",–
Cn1cc(Cl)c(C(=O)Nc2cccc(Cl)c2Cl)n1,"2.31 µM [falling, full curve]",–
COc1ccc(-c2nn(-c3ccccc3)cc2C(=O)Nc2ccc(C(=O)O)cc2)cc1,"5.01 µM [falling, single point]",–
Cc1nc(NC(=S)NC(=O)c2ccccc2)sc1C,"4.47 µM [falling, full curve]",–
O=C(c1cccs1)c1ccc(-c2cccs2)s1,"7.08 µM [falling, partial curve]",–
COc1ccccc1N(CC(=O)NCc1ccccn1)S(C)(=O)=O,"6.51 µM [falling, single point]",–
Cc1cccc(CSc2nnnn2-c2ccccc2)c1,"3.26 µM [falling, single point]",–
O=C(NCC1COc2ccccc2O1)c1cccs1 (stereo unspecified),"12.6 µM [rising, partial curve, poor fit]",–

SMILES,AC50 [1],AC50 [2]
CC(C)=C1C2CCC1C1C(=O)N(c3nc(-c4ccccc4)c(C)s3)C(=O)C21 (stereo unspecified),"1.3 µM [rising, full curve]",–
O=C(c1ccc(Br)s1)N1CCN(c2ncccn2)CC1,"1.3 µM [rising, full curve]",–
COc1ccc(NC(=O)c2ccc(NC(=O)C3CC3)cc2)cc1,"3.98 µM [rising, full curve]",–
CCCn1nc(C(=O)Nc2ccc3c(c2)OCCO3)c2ccccc2c1=O,"29.1 µM [falling, single point]",–
O=C(CN1CCN(C2CCCCC2)CC1)Nc1ccccc1-c1ccccc1,"4.11 µM [falling, full curve, poor fit]",–
CC1CC(C)CN(CCCNC(=O)c2ccc3c(c2)N(Cc2ccccc2)C(=O)c2ccccc2S3=O)C1 (stereo unspecified),"0.1 µM [falling, full curve, poor fit]",–
Cc1ccc(-c2csc(C3=C(O)CN(NC(=O)c4ccco4)C3=N)n2)cc1,"8.91 µM [rising, partial curve, poor fit]",–
C/C(=N\OC(=O)Nc1ccccc1)c1cnn(-c2cc(C(F)(F)F)cc(C)n2)c1C,"11.2 µM [rising, partial curve, poor fit]",–
CN(CC(=O)Nc1c(Cl)cccc1Cl)C(=O)C1=COCCO1,"20.6 µM [rising, single point]",–
COc1cccc(CN2CCN(Cc3ccc(O)cc3)CC2CCO)c1 (stereo unspecified),"3.55 µM [rising, full curve, poor fit]",–
CN(Cc1ccccc1)C(=O)c1[nH]cnc1C(=O)Nc1ccc(Cl)cc1,"0.651 µM [rising, full curve, poor fit]",–
CN(C)c1ccnc(-n2cccc2/C=N/OCc2ccccc2)c1C#N,"4.61 µM [rising, full curve, poor fit]",–
COc1ccc(CC(=O)O/N=C(\N)c2ccccc2)cc1OC,"0.501 µM [rising, full curve, poor fit]",–
COc1cc(CNn2c(C)n[nH]c2=S)cc(Cl)c1OCc1ccc(F)cc1,"0.0651 µM [rising, full curve, poor fit]",–
CCN1CCN(Cc2ccc(NC(=O)c3cc(NC(=O)c4cc5cccc(OC)c5o4)cc(OC)c3)cc2C(F)(F)F)CC1,"11.2 µM [falling, partial curve]",–
CC(=O)Nc1ccc(S(=O)(=O)NNC(=O)c2cccc(Cl)c2)cc1,"0.282 µM [rising, full curve, poor fit]",–
COc1ccc(CCNC(=O)c2ccc3nc(-c4ccco4)c(-c4ccco4)nc3c2)cc1OC,"12.6 µM [falling, partial curve]",–
O=C(CCCCCNC(=S)Nc1ccc(Cl)cc1)C[N+](=O)[O-],"10 µM [falling, partial curve]",–
CC(NCCC(c1ccccc1)c1ccccc1)c1ccccc1 (stereo unspecified),"11.2 µM [falling, partial curve, poor fit]","15.8 µM [rising, partial curve, poor fit]"
Cc1cc(C)cc(N2C(=O)CC(N(C(=O)c3ccco3)c3cc(C)cc(C)c3)C2=O)c1 (stereo unspecified),"14.6 µM [rising, partial curve, poor fit]",–
